Data source: PubChem BioAssay AID1259254 (NCATS, 2017)
Shown is a random part of about 59,000 deposited reagents. Of all reagents, about 1,550 (2.6%) are marked active. 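G2 share is only a proxy for re-replication; each gene was hit by three separate siRNAs, and active genes were retested.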 Entries without a mark were called inactive. The numbers tell different reagents against one gene apart. Not all columns of the deposit are shown. The record does not give: the amount of reagent.

- Test: 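Finding genes that stop cells copying their DNA twice in one cycle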 (primary screen)
- Cell system: human HCT116 colorectal cancer cells
- Reagent: single siRNA against human genes
- Time to read-out: 3 days
- Read-out: 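Imaged Hoechst DNA stain sorts each cell into a cycle phase by DNA amount; per plate, G2 fraction set to 0% for non-targeting and 100% for GMNN siRNA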
- Reading the numbers: G2 robust z-score and G2 cells, % of GMNN control: higher = more G2 cells, more excess DNA replication
- Hit rule: 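Active siRNAs have a G2 robust z of 5 or more median absolute deviations over the median, which in these data means about 38% or higher of GMNN control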

| Gene | reagent no. | G2 robust z-score | G2 cells, % of GMNN control |
| --- | --- | --- | --- |
| UTP20 (GeneID 27340) | 1 | 0.968 | 9.78 |
| UTP20 (GeneID 27340) | 2 | -0.912 | -3.45 |
| UTP20 (GeneID 27340) | 3 | 3.34 | 26.5 |
| MIF (GeneID 4282) | 1 | -0.0345 | 2.72 |
| MIF (GeneID 4282) | 2 | -0.131 | 2.05 |
| MIF (GeneID 4282) | 3 | 0.21 | 4.45 |
| RBMS1 (GeneID 5937) | 1 | 0.2 | 4.37 |
| RBMS1 (GeneID 5937) | 2 | -0.0795 | 2.41 |
| RBMS1 (GeneID 5937) | 3 | 2.51 | 20.7 |
| HCCAT5 (GeneID 283902) | 1 | 0.535 | 6.73 |
| HCCAT5 (GeneID 283902) | 2 | -0.804 | -2.69 |
| HCCAT5 (GeneID 283902) | 3 | 0.529 | 6.69 |
| MCEMP1 (GeneID 199675) | 1 | -0.904 | -3.39 |
| MCEMP1 (GeneID 199675) | 2 | 0.528 | 6.68 |
| MCEMP1 (GeneID 199675) | 3 | -0.0537 | 2.59 |
| CHTF8 (GeneID 54921) | 1 | -1.19 | -5.41 |
| CHTF8 (GeneID 54921) | 2 | 0.901 | 9.31 |
| CHTF8 (GeneID 54921) | 3 | -0.462 | -0.282 |
| ATP5PF (GeneID 522) | 1 | 2.6 | 21.3 |
| ATP5PF (GeneID 522) | 2 | -0.48 | -0.413 |
| ATP5PF (GeneID 522) | 3 | 4.58 | 35.2 |
| GPATCH11 (GeneID 253635) | 1 | 1.12 | 10.8 |
| GPATCH11 (GeneID 253635) | 2 | 1.99 | 17 |
| GPATCH11 (GeneID 253635) | 3 | 1.23 | 11.6 |
| CCDC170 (GeneID 80129) | 1 | -0.7 | -1.96 |
| CCDC170 (GeneID 80129) | 2 | 2.39 | 19.8 |
| CCDC170 (GeneID 80129) | 3 | -0.154 | 1.88 |
| ACTR3 (GeneID 10096) | 1 | -0.573 | -1.06 |
| ACTR3 (GeneID 10096) | 2 | -0.309 | 0.795 |
| ACTR3 (GeneID 10096) | 3 | -0.641 | -1.55 |
| CSHL1 (GeneID 1444) | 1 | 0.508 | 6.54 |
| CSHL1 (GeneID 1444) | 2 | 0.021 | 3.11 |
| CSHL1 (GeneID 1444) | 3 | 1.2 | 11.4 |
| GCSAM (GeneID 257144) | 1 | -0.253 | 1.19 |
| GCSAM (GeneID 257144) | 2 | 0.495 | 6.45 |
| GCSAM (GeneID 257144) | 3 | -0.13 | 2.05 |
| TF (GeneID 7018) | 1 | 3.46 | 27.3 |
| TF (GeneID 7018) | 2 | 3.08 | 24.6 |
| TF (GeneID 7018) | 3 | -0.341 | 0.568 |
| CSAG3 (GeneID 389903) | 1 | -0.55 | -0.903 |
| CSAG3 (GeneID 389903) | 2 | -0.207 | 1.51 |
| CSAG3 (GeneID 389903) | 3 | 0.779 | 8.45 |
| CD1D (GeneID 912) | 1 | 0.13 | 3.88 |
| CD1D (GeneID 912) | 2 | -0.442 | -0.146 |
| CD1D (GeneID 912) | 3 | 0.52 | 6.63 |
| DNAJC7 (GeneID 7266) | 1 | -0.0613 | 2.54 |
| DNAJC7 (GeneID 7266) | 2 | 0.275 | 4.9 |
| DNAJC7 (GeneID 7266) | 3 | 0.297 | 5.06 |
